Laboratory results: article doi:10.1101/2024.05.31.596839
Positions count from the first letter of the chain named. These are yes or no findings as the source states them, for the method shown. Some binding calls cover weakened binding; strength is not graded here.

Experiments:
[1] = molecular target: T1, BoYb NTD_MUT (Drosophila) (UniProt Q9VNP5); experiment: ReLo
T1 sequence: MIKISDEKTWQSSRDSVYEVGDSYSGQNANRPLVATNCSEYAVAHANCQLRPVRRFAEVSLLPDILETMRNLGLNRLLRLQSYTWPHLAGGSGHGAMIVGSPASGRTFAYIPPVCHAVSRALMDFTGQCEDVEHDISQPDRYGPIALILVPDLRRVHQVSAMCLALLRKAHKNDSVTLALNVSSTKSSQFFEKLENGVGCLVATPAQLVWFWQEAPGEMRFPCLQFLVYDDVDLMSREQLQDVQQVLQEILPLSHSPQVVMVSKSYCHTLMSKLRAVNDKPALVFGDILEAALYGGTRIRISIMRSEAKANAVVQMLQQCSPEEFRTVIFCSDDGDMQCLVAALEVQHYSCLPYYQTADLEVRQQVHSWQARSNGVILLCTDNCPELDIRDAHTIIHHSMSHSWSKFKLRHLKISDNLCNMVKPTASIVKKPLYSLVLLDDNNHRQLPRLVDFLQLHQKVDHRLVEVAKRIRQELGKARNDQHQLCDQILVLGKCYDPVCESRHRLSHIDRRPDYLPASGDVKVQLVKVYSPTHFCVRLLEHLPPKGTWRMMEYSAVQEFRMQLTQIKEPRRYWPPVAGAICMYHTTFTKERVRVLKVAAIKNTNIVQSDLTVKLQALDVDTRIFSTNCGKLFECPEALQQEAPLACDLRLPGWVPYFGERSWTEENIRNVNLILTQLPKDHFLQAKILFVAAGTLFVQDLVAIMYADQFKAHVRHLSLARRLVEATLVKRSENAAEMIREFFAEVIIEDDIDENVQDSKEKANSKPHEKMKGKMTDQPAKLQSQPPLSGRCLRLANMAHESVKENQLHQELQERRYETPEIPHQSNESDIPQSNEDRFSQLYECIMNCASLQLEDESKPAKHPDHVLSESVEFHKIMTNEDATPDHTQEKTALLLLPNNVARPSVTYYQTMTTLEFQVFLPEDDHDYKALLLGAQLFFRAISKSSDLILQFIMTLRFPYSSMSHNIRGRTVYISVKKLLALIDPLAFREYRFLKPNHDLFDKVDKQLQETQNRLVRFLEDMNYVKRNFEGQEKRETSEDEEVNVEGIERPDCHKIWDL

[2] = molecular target: T2, BoYb CS_MUT1 (Drosophila) (UniProt Q9VNP5); experiment: ReLo
T2 sequence: T1 sequence with E192L, E195L, E218L, L979E, L980E, L982E

B1: Vreteno (protein, UniProt Q9VCU7 1-691)
chain: MESESSQDDWSAFDPMSREYYDQVGNRYTNESGQKLIMEAPLPPKDEKEQRATRQAKYPYLVVPKSSPYVTEKMLINFFGRALIKEMEFRRLSRVYFVYFENIASLETAQQRVQRYPNLIKCITGRPQKEREITSDPVTSTEPMPTPGPAISATERTPVNHNREVPISTGGQNHPEFFRPPLVTKDDYKRGSLLATNDPIQRYLNVKYEFALERHDIYKLKDETRIPQVVLHFRSGRTIPLSTVAVTEEDKTKSLLEDGVSKCVVCQNWTDTFCKLCKMPFCNASCFADVAEQHKQACGKGEILNLDEKVGRKYPKPGLPPSGSKVRITAFEQTNVVYVRSADIQIDIAYYTVLTEVMMLGKDASKLQSTPVCGQIVLYKFEGHMSRAMVLNVDNIKEIYVVFIDFGSVEVTQLERLYECSSYLAGLTCYPVAVKLRGVPRRFVGPNIREVMYELDQSLVFNIKYSSREYDTSKGMQVVVMTEIDINRSLNRLFKTILTPVEPSVSDLGYKEDCLPYIPLHCGKNINVVVMDNTFIQCGFIYCTSIDLAYEVTKMQRDIQEYGEKIAKCATYAPPINELCIAKYEGKWRRGLSVELVGDGYPSILFIDYGNIVPTHVTDIRPYPPQFIFPIMTTQLDLIGVPEKPTDEQIKWLDKNYPIGSVITCSEITFDEETNSYSTRIEKLQEFLSLD
[1]
  binding: binds
[2]
  binding: binds
